The values below are quoted from earlier work in US5747503A, “Selective inhibitors of biogenic amine transporters” (priority 1996, dated 1998).

Structures are written as SMILES.

What is called Ki is a dissociation constant, usually derived from enzyme kinetics or from competition with a known ligand.

The data set addresses PCP site 2. The settings on record: Rothman et al. (1992); cited from earlier work.

For the compound `CN1[C@@H]2CC[C@H]1C[C@@H](OC(c1ccccc1)c1ccccc1)C2` [benztropine], the Ki was 183 nM.
